These are yes or no findings as the source states them, for the method shown. For some of these results: In cells and extracts the contact can be indirect. Some results given as binding are weak or reduced against the parent protein; the word gives no strength. For some of these results: Sequences can lack the tags named with a protein.
Key:
[1] = target: T1, cYFP-POT1a (N. benthamiana) (Arabidopsis thaliana) (UniProt Q56Y52); experiment: split reporter; BiFC, nYFP/cYFP constructs (pE-SPYNE-GW, pE-SPYCE-GW, pC-SPYNE-GW) transiently expressed in N. benthamiana leaves, confocal microscopy after 3 days
T1 sequence: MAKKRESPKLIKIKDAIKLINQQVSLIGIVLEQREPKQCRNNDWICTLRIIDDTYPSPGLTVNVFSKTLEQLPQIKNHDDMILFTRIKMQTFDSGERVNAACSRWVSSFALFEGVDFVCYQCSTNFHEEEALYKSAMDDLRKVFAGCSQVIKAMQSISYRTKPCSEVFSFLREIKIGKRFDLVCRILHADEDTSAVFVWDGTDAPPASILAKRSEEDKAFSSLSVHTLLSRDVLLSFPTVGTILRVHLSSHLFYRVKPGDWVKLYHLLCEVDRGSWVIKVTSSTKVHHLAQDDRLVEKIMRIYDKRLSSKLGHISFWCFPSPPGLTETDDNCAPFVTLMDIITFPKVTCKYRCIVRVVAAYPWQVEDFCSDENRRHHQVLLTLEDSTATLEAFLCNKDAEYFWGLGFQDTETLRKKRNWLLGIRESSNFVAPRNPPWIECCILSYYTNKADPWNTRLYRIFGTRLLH

[2] = target: T2, cYFP-RID (N. benthamiana) (Arabidopsis thaliana) (UniProt Q9SPU7); experiment: as above
T2 sequence: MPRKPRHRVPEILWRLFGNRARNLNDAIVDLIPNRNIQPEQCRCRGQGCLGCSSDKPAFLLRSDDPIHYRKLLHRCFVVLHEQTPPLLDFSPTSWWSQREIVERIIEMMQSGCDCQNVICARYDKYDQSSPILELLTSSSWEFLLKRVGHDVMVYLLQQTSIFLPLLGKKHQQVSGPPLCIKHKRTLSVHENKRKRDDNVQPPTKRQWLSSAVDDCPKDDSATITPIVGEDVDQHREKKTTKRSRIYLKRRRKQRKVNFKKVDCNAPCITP

[3] = target: T3, cYFP-RID (Arabidopsis protoplasts) (Arabidopsis thaliana) (UniProt Q9SPU7); experiment: split reporter; BiFC, pSAT1-nEYFP-C1/pSAT1-cEYFP-C1-B constructs in Arabidopsis protoplasts, confocal microscopy 16 h after transfection
T3 sequence: T2 sequence

[4] = target: T4, c-myc-tagged TEN, in vitro translated (Arabidopsis thaliana) (UniProt Q9SPU7); experiment: co-IP; both proteins translated in vitro in rabbit reticulocyte lysate; 35S-Met labelled prey mixed with c-myc- or HA-tagged bait in 25 mM HEPES pH 7.5, 150 mM KCl, 5 mM MgCl2, 0.1% Nonidet P-40; anti-c-myc or anti-HA magnetic beads
T4 sequence: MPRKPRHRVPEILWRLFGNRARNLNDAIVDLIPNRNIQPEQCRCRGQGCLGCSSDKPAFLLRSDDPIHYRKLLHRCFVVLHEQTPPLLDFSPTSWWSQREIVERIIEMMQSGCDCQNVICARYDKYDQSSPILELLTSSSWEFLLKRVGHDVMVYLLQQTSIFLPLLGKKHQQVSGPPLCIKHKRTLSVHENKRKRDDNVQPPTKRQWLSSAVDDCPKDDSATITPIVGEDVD

[5] = target: T5, c-myc-tagged POT1a, in vitro translated (Arabidopsis thaliana) (UniProt Q56Y52); experiment: as above
T5 sequence: T1 sequence

[6] = target: T6, AtTERT Fw3NNLS construct (229-582 aa) (Arabidopsis thaliana) (UniProt Q9SPU7); experiment: two-hybrid; Matchmaker GAL4 system, pGADT7-DEST/pGBKT7-DEST, S. cerevisiae PJ69-4α, 30 °C; growth on -LWH plates (with increasing 3-aminotriazol) and -LWHAde plates
T6 sequence: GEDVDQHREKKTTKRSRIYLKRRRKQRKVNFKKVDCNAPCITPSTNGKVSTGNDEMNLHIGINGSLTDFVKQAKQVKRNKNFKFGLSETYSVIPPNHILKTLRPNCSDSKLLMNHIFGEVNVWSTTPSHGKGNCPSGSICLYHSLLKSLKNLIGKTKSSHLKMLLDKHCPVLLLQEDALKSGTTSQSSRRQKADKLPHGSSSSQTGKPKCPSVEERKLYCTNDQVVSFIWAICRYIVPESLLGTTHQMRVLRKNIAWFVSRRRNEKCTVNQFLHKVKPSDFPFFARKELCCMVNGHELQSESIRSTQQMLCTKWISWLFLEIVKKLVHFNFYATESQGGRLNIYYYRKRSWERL

[7] = target: T7, AtTERT RID construct (1-271 aa) (Arabidopsis thaliana) (UniProt Q9SPU7); experiment: as above
T7 sequence: T2 sequence

B1: HSP90-7 BiFC construct (protein, UniProt Q9STX5 24-823)
chain: RKLHANAEESSDDVTDPPKVEEKIGGHGGLSTDSDVVHRESESMSKKTLRSNAEKFEFQAEVSRLMDIIINSLYSNKDIFLRELISNASDALDKIRFLALTDKDVLGEGDTAKLEIQIKLDKAKKILSIRDRGIGMTKEDLIKNLGTIAKSGTSAFVEKMQSSGDLNLIGQFGVGFYSAYLVADYIEVISKHNDDSQYVWESKANGKFAVSEDTWNEPLGRGTEIRLHLRDEAGEYLEESKLKELVKRYSEFINFPISLWASKEVETEVPVEEDESADEETETTSTEEEKEEDAEEEDGEKKQKTKKVKETVYEWELLNDVKAIWLRSPKEVTEEEYTKFYHSLSKDFTDEKPMAWSHFNAEGDVEFKAVLYVPPKAPHDLYESYYNSNKANLKLYVRRVFISDEFDELLPKYLSFLKGLVDSDTLPLNVSREMLQQHSSLKTIKKKLIRKALDMIRKLAEEDPDEIHDDEKKDVEKSGENDEKKGQYTKFWNEFGKSVKLGIIEDAANRNRLAKLLRFETTKSDGKLTSLDQYIKRMKKSQKDIFYITGSSKEQLEKSPFLERLIKKGYEVIFFTDPVDEYLMQYLMDYEDKKFQNVSKEGLKVGKDSKDKELKEAFKELTKWWKGNLASENVDDVKISNRLADTPCVVVTSKFGWSANMERIMQSQTLSDANKQAYMRGKRVLEINPRHPIIKELKDRIASDPEDESVKETAQLMYQTALIESGFILTDPKDFAARIYNSVKSGLNISPDAVADEEIEAAEEPETSEATETKSDDLAGGLNIEAEPVEQQEENTKDEL
binding [1]: binds
binding [2]: binds

B2: FIB2 nYFP construct (protoplasts) (protein, UniProt Q94AH9 1-320)
chain: MRPPLTGSGGGFSGGRGRGGYSGGRGDGGFSGGRGGGGRGGGRGFSDRGGRGRGRGPPRGGARGGRGPAGRGGMKGGSKVIVEPHRHAGVFIAKGKEDALVTKNLVPGEAVYNEKRISVQNEDGTKTEYRVWNPFRSKLAAAILGGVDNIWIKPGAKVLYLGAASGTTVSHVSDLVGPEGCVYAVEFSHRSGRDLVNMAKKRTNVIPIIEDARHPAKYRMLVGMVDVIFSDVAQPDQARILALNASYFLKSGGHFVISIKANCIDSTVPAEAVFQTEVKKLQQEQFKPAEQVTLEPFERDHACVVGGYRMPKKPKAATAA
binding [3]: binds

B3: LSm4 BiFC construct (protoplasts) (protein, UniProt F4K4E3 1-129)
chain: MLPLSLLKTAQGHPMLVELKNGETYNGHLVNCDTWMNIHLREVICTSKDGDRFWRMPECYIRGNTIKYLRVPDEVIDKVQEEKTRTDRKPPGVGRGRGRGVDDGGARGRGRGTSMGKMGGNRGAGRGRG
binding [3]: binds weakly

B4: MCM5, full length, radioactively labelled, in vitro translated (protein, UniProt O80786 1-727)
chain: MSGWDEGAVYYSDQPQFPEAGDAATISPHAVLTKFKEFIRNFEIEQNCFPYREALLDNPKRLVVHLEDLLSFDSDLPSLIRSAPADYLPVFEKAAGEVLTGLKMREANEGGVMEEPLTRDVQILLTSREDPVSMRLLGAQYISKLVKISGISIAASRVKAKATYVFLVCKNCKKTREVPCRPGLGGAIVPRSCDNIPQPGEEPCPLDPWMVVPDRSQYVDQQTLKLQENPEDVPTGELPRNMLLSVDRHLVQTIVPGTRLTVMGIYSIFQASSSSNSHKGAVAIRQPYIRVVGLEDTNEASSRGPANFTPDEEEEFKKFADSQDVYKNICTKIAPSIFGHEDVKRAAACLLFGGSRKSLPDGVKLRGDINVLLLGDPSTAKSQFLKFVEKTAPIAVYTSGKGSSAAGLTASVIRDSSTREFYLEGGAMVLADGGVVCIDEFDKMRPEDRVAIHEAMEQQTISIAKAGITTVLNSRTSVLAAANPPSGRYDDLKTAQDNIDLQTTILSRFDLIFIVKDIRKYSQDKEIASHIIRVHASANKFSDENTDSKEDNWLKRYIQYCRARCHPRLSKDAAENLQRKYVTIRMDMKRRAHETGEAAPIPITVRQLEAIVRLSESLAKMRLSHEATPDDVDKAFKLFDTSTMDAARSGINQQINITGEMANEIKQAETQIKRRMGIGARLSERRLIEDLARMGMNDSMVRRALLIMHQRGEVEYQRERRSIVRKA
modifications: 35S-Met labelled
binding [4]: binds

B5: MCM7, full length, radioactively labelled, in vitro translated (protein, UniProt P43299 1-716)
chain: MKDHDFDGDKGLAKGFLENFADANGRSKYMEILQEVSNRKIRAIQVDLDDLFNYKDESEEFLGRLTENTRRYVSIFSAAVDELLPEPTEAFPDDDHDILMTQRADDGTDNPDVSDPHQQIPSEIKRYYEVYFKAPSKGRPSTIREVKASHIGQLVRISGIVTRCSDVKPLMAVAVYTCEDCGHEIYQEVTSRVFMPLFKCPSSRCRLNSKAGNPILQLRASKFLKFQEAKMQELAEHVPKGHIPRSMTVHLRGELTRKVSPGDVVEFSGIFLPIPYTGFKALRAGLVADTYLEATSVTHFKKKYEEYEFQKDEEEQIARLAEDGDIYNKLSRSLAPEIYGHEDIKKALLLLLVGAPHRQLKDGMKIRGDVHICLMGDPGVAKSQLLKHIINVAPRGVYTTGKGSSGVGLTAAVMRDQVTNEMVLEGGALVLADMGICAIDEFDKMDESDRTAIHEVMEQQTVSIAKAGITTSLNARTAVLAAANPAWGRYDLRRTPAENINLPPALLSRFDLLWLILDRADMDSDLELAKHVLHVHQTEESPALGFEPLEPNILRAYISAARRLSPYVPAELEEYIATAYSSIRQEEAKSNTPHSYTTVRTLLSILRISAALARLRFSESVAQSDVDEALRLMQMSKISLYADDRQKAGLDAISDTYSIIRDEAARSKKTHVSYANALNWISRKGYSEAQLKECLEEYAALNVWQIDPHTFDIRFI
modifications: 35S-Met labelled
binding [5]: binds

B6: FIB2 (protein, UniProt Q94AH9 1-320)
chain: B2 chain
binding [6]: binds weakly
binding [7]: binds

B7: LSm4 (LIKE Sm 4) (protein, UniProt F4K4E3 1-129)
chain: B3 chain
binding [6]: binds weakly
binding [7]: binds weakly

Reference: publication PMC8745574
